# The campaign covered roughly 340,000 compounds. About 170 (0.05%) were called active. The inconclusive results got no clear call from the source; some entries with a clear call stand among them for comparison. Calls come from the whole dose curve; as a rule, active = well fitted inhibition curve with a large enough effect in the signal ratio, with a control signal flat (not every such curve was filed as active); inconclusive = small, poorly fitted or top-dose-only effect, or effect the other way, or a change in a side signal; inactive = flat fitted curve, though single readings scatter; the % refers to the signal ratio. Where the call is inconclusive, the potency comes from a doubtful curve fit.
# Assay: qHTS Assay to Find Inhibitors of Chronic Active B-Cell Receptor Signaling;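 for activity change, negative = inhibition: plate controls were basal doxycycline-induced cells for no effect and cells given 10 µM MG132 for full effect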
# Details: ABC-DLBCL IkBa-CBG/CBR reporter, luminescence ratio (green luciferase fused to IkBa over red control in TMD8 lymphoma cells), 4 h
# Source text: NIH Molecular Libraries Probe Production Network [MLPCN] NIH Chemical Genomics Center [NCGC] MLPCN Grant: 1 R03 DA031086-01A1 PI Name: Dr. R. Eric Davis NCGC Assay Overview: Diffuse large B-cell lymphoma (DLBCL) is the most common category of non-Hodgkin lymphoma, with ~20,000 new cases per year in the United States. DLBCL should be regarded as a collection of different neoplasms. Microarray gene expression analysis has defined two principal types of DLBCL, named for their similarity to normal B cell stages or activation states: a germinal center B-cell (GCB) type, and an activated B-cell (ABC) type. In ABC-DLBCL, a constitutive high-level activity of the NF-kappaB family of transcription factors has been observed (1) and NF-kappaB target genes are more highly expressed in ABC primary tumors than in GCB tumors. Functional studies have shown a constitutive high-level activity of the IkappaB (inhibitor of kappa-B) kinase (IKK) complex. […] Further analysis of DLBCL primary tumors for NF-kappaB target gene expression imply that although CARD11 is required for constitutive IKK activity in all ABC-DLBCL lines, mutations in CARD11 may be the root cause of IKK activation only in lines or tumors with such mutations. In other words, CARD11 mutations may explain NF-kappaB activation in only 10% of ABC-DLBCL cases. […] This process has been termed 'chronic active BCR signaling' (CABS). The goal of this screen is to find small-molecule inhibitors of the CABS pathway found in ABC-DLBCL lines using a cell-based assay that measures IkappaBalpa stability, which has already been extensively validated in the OCI-Ly3 line (PubChem AID:445; REF: 4). […] The assay uses green (CBG68) and red (CBR) emitting beetle luciferases [Chroma-GloTM developed by Promega Corp.] where the green luciferase is fused to IkappaBalpha and the red luciferase is present in its native state. Both luciferase genes are stably present in the TMD8 human ABC DLBCL cell line, but their expression is under the control of tetracycline-inducible promoters. Following the addition of doxycycline to induce expression of the luciferases, the green luminescence in control cultures rises only slowly because the CBG fusion partner IkappaBalpha is targeted by IKK activity for rapid degradation. In contrast, green luminescence rises rapidly in the presence of proteasome inhibitors or IKK inhibitors. The rise in red luminescence of CBR is not affected by proteasome or IKK inhibitors, and serves as normalization for cell number and nonspecific effects. Compounds were screened as a concentration-titration series that ranged from 46 uM to 3 nM.
# NCGC Assay Protocol Summary: Cells were seeded in 1536-well plates at 5000 cells/4uL in IMDM medium containing 0.5% FBS, w/o phenol red, 1% penicillin/streptomycin. Then, 23 nL of compounds or DMSO were delivered to each well using a pin tool. One uL 20ng/ml doxycycline was then dispensed into white solid 1536-well plates and the plates were incubated at 37C/5% C02 in a cell incubator for 4 hrs. Then 4 uL luminescent substrate mix (in-house prepared: 150 mM Tris-Cl, pH 7.6, 3 mM MgCl2, 1% Triton X-100, 5 mM DTT, 0.2 mM CoA, 0.15 mM ATP, 5 mM D-luciferin, final concentrations) was added to each well. The plate was incubated at r.t. for 10-15 min. The plates were measured on a ViewLux plate reader for green luminescence (540/20 nm filter) and red luminescence (618/8 nm filter). The green and red luminescent signals were corrected for red and green luminescence filter overlap using previously determined filter calibration constants (determined using the procedure outlined in the Promega Technical Manual; REF 4). The %Activity was determined from the ratio of corrected green/red luminescent values. MG132 were used as control. […] Red luminescent %Activity was normalized to the difference between red luminesence in basal cells (0%Activity) and zero luminescence (-100% Activity). […]
# [1] = activity change, negative = inhibition: at 46.1 µM (top of the series)
# Potency is the fitted concentration of half-maximal effect.
compound,measurement,setting,value
O=C1CN=C(c2ccccc2)c2ccccc2N1,"activity change, negative = inhibition",[1],inactive
NC(Cc1ccccc1)c1nc(-c2ccccc2)no1 (configuration not stated),Potency,[1],"inconclusive: 22.4 µM [falling, single point]"
O=C1NC(=S)NC(=O)C1=Cc1ccc(Br)s1,"activity change, negative = inhibition",[1],inactive
COc1ccc2c3c1O[C@H]1C(=O)CC[C@H]4[C@@H](C2)N(C)CC[C@]314,"activity change, negative = inhibition",[1],inactive
O=C1C2CCN(CC2)C12CC2c1ccc(C(F)(F)F)cc1 (configuration not stated),"activity change, negative = inhibition",[1],inactive
CCCCNS(=O)(=O)c1ccc(OCC(=O)N2CCN(Cc3ccc4c(c3)OCO4)CC2)cc1,"activity change, negative = inhibition",[1],inconclusive: -2.54%
O=[N+]([O-])c1cccc(NP(=O)(Oc2ccccc2)Oc2ccccc2)c1,Potency,[1],"inconclusive: 35.5 µM [falling, single point]"
O=C(Nc1cccc(F)c1)N1CCC(c2ccccc2)CC1,Potency,[1],"inconclusive: 12.6 µM [falling, partial curve, poor fit]"
CC(=O)c1c(C)[nH]c(C(=O)OCc2cccc(Cl)c2)c1C,"activity change, negative = inhibition",[1],inconclusive: 4.63%
CCOC(=O)Cn1c(=O)oc2cc(S(=O)(=O)NC3CCCc4ccccc43)ccc21 (configuration not stated),"activity change, negative = inhibition",[1],inconclusive: -28.7%
CC1(C)CC(=O)C(C=NCCN2CCN(C(=O)Cc3ccccc3)CC2)=C(O)C1,"activity change, negative = inhibition",[1],inconclusive: 0.459%
COc1cccc(CC(=O)N2CCN(Cc3cccc(Cl)c3)CC2)c1,"activity change, negative = inhibition",[1],inconclusive: -11.8%
CC(CO)(CO)N=Cc1c(O)n(-c2cccc3ccccc23)c(=O)[nH]c1=O,"activity change, negative = inhibition",[1],inconclusive: -22.6%
COc1ccc2ccc(O)c(CN3CC=C(c4ccccc4)CC3)c2c1,"activity change, negative = inhibition",[1],inconclusive: -14.8%
C=CCn1c(O)c(C(C)=NCc2cccnc2)c(=O)[nH]c1=O,"activity change, negative = inhibition",[1],inconclusive: 2.49%
CNC(=O)Oc1ccc2c(c1)C(=O)c1ccccc1CO2,"activity change, negative = inhibition",[1],inconclusive: -10.1%
c1ccc2c(CN3CCCCCC3)c[nH]c2c1,Potency,[1],"inconclusive: 7.08 µM [falling, partial curve, poor fit]"
COc1ccc(Cl)cc1NC(=O)CN(C)CC(=O)Nc1ccc(Br)cc1,Potency,[1],"inconclusive: 22.4 µM [falling, partial curve, poor fit]"
Cc1cccc(OP(=O)(Nc2ccc(F)cc2)Oc2cccc(C)c2)c1,Potency,[1],"inconclusive: 12.6 µM [falling, partial curve, poor fit]"
Cc1ccc(N=Nc2c(O)[nH]c(=O)[nH]c2=O)cc1S(=O)(=O)Nc1ccc(Br)cc1,"activity change, negative = inhibition",[1],inconclusive: -6.1%
CC1=CC(C)C(COC(N)=O)(COC(N)=O)C(C)C1 (configuration not stated),"activity change, negative = inhibition",[1],inconclusive: 4.44%
NC(N)=N/N=C/c1ccc(N2CCOCC2)cc1,Potency,[1],"inconclusive: 35.5 µM [falling, single point]"
CNC(=O)N(C)c1ccc(C(O)(C(=O)OC)C(F)(F)F)cc1 (configuration not stated),"activity change, negative = inhibition",[1],inconclusive: -6.53%
COCCN1C(=O)NC(=O)/C(=C\c2ccc(Br)cc2)C1=O,"activity change, negative = inhibition",[1],inactive
O=C(/C=C/c1ccc(Cl)cc1)NC(=S)N1C[C@H]2C[C@H](C1)c1cccc(=O)n1C2,"activity change, negative = inhibition",[1],inactive
C/C=C(\C)C(=O)N[C@@H](c1ccccc1)[C@@H](O)C(=O)O[C@H]1C[C@@]2(O)[C@@H](OC(=O)c3ccccc3)C3[C@](C)(C(=O)[C@H](OC(C)=O)C(=C1C)C2(C)C)[C@@H](O)C[C@H]1OC[C@@]31OC(C)=O (some centres not stated),"activity change, negative = inhibition",[1],inactive
O=[N+]([O-])c1ccc(N2CCCC2)c(F)c1Br,"activity change, negative = inhibition",[1],inactive
CCN(CC)C(=O)c1ccc2c(c1)C1C(Cl)C(Sc3ccccc3[N+](=O)[O-])CC1C(C(=O)O)N2 (configuration not stated),"activity change, negative = inhibition",[1],inactive
COc1ccccc1N1CCN(Cc2ccccc2Cl)CC1,Potency,[1],"inconclusive: 6.51 µM [falling, single point]"
O=C(Cn1nc(Cc2cccnc2)c2ccccc2c1=O)N1CCC2(CC1)OCCO2,"activity change, negative = inhibition",[1],inconclusive: -1.56%
Cc1cccc(-n2c(O)c(C=NCCN3CCCCC3)c(=O)[nH]c2=O)c1,"activity change, negative = inhibition",[1],inconclusive: 12.1%
Cc1nc2ccccc2c(=O)n1-c1ccc(F)cc1F,"activity change, negative = inhibition",[1],inconclusive: -1.58%
Cc1ccc2c(c1)C1CN(C)CCC1N2S(=O)(=O)c1ccccc1 (configuration not stated),"activity change, negative = inhibition",[1],inconclusive: -0.804%
Nc1c(C(=O)NCc2ccco2)c2nc3ccccc3nc2n1Cc1ccccc1,"activity change, negative = inhibition",[1],inconclusive: -3.19%
Cc1cccc(-n2c(C)nc3cc(C(=O)N4CCC5(CC4)OCCO5)ccc32)c1,"activity change, negative = inhibition",[1],inconclusive: -11.8%
Oc1ccc(C2NCc3ccccc3-n3cccc32)cc1Cl (configuration not stated),"activity change, negative = inhibition",[1],inconclusive: -4.87%
same,"activity change, negative = inhibition",at 46.1 µM (top of the series),inactive: 0.939%
CCOc1ccc(C(=O)CC(NCc2cccs2)C(=O)O)cc1 (configuration not stated),"activity change, negative = inhibition",[1],inconclusive: 2.58%
CCOc1cccc(CNCCc2c(C)[nH]c3ccc(OC(F)(F)F)cc23)c1O,"activity change, negative = inhibition",[1],inconclusive: 6.21%
O=C1CC(N2CCC(n3c(=O)[nH]c4ccccc43)CC2)C(=O)N1Cc1ccccc1 (configuration not stated),"activity change, negative = inhibition",[1],inactive
O=C(CN1CC=C(c2ccccc2)CC1)NC(=O)NCc1ccco1,"activity change, negative = inhibition",[1],inconclusive: 6.75%
COc1ccc(-c2n(CC(=O)OC3CC(C)CCC3C(C)C)c3ccccc3[n+]2C)cc1 (configuration not stated),"activity change, negative = inhibition",[1],inconclusive: 13.4%
Cc1ccccc1N1CCN(C2CCCN(C(=O)Cc3c(C)noc3C)C2)CC1 (configuration not stated),"activity change, negative = inhibition",[1],inconclusive: -2.22%
O=C(N/N=C1/CN2CCC1CC2)c1cccc(O)c1,Potency,[1],"inconclusive: 4.61 µM [falling, partial curve]"
Cc1cc(C)c(-n2c(O)c(/C=N/NC(=O)c3ccncc3)c(=O)[nH]c2=O)c(C)c1,"activity change, negative = inhibition",[1],inconclusive: 1.83%
C[C@]12CCC3=C4CCC(=O)C=C4CC[C@H]3C1CC[C@@H]2O (some centres not stated),"activity change, negative = inhibition",[1],inactive
CCCCCn1c(=O)c(C(=O)Nc2ccccc2N)c(O)c2ccccc21,"activity change, negative = inhibition",[1],inconclusive: 9.49%
CCOC(=O)C(O)(c1ccc(NC(=S)NC(=O)c2ccc(Cl)cc2Cl)c(C)c1)C(F)(F)F (configuration not stated),"activity change, negative = inhibition",[1],inconclusive: 3.41%
CCCCNC(=O)Nc1nc2ccc(CC)cc2s1,"activity change, negative = inhibition",[1],inconclusive: -2.35%
CC(C)(C)C(=O)NC(=S)NNC(=O)c1ccc(Cl)cc1Cl,"activity change, negative = inhibition",[1],inconclusive: -4.58%
COc1ccc(CCn2c(O)c(C=Nc3ccc(F)cc3)c(=O)[nH]c2=O)cc1OC,"activity change, negative = inhibition",[1],inconclusive: 1.43%
CN(C)C(=O)Oc1ccc2ccccc2c1Cl,"activity change, negative = inhibition",[1],inconclusive: -1.2%

# Three entries from above, with bars between the fields.
compound | measurement | setting | value
CC1(C)CC(=O)C(C=NCCN2CCN(C(=O)Cc3ccccc3)CC2)=C(O)C1 | activity change, negative = inhibition | [1] | inconclusive: 0.459%
CCOc1ccc(C(=O)CC(NCc2cccs2)C(=O)O)cc1 (configuration not stated) | activity change, negative = inhibition | [1] | inconclusive: 2.58%
O=C(CN1CC=C(c2ccccc2)CC1)NC(=O)NCc1ccco1 | activity change, negative = inhibition | [1] | inconclusive: 6.75%
